From PubChem BioAssay AID1665 (Sanford-Burnham Center for Chemical Genomics, 2009)
The other results are listed elsewhere or left out. Some of these compounds have results that are not shown, active ones among them.

Assay: modulators of beta-catenin nuclear translocation, primary screen, imaging, HeLa cells, immunofluorescence, high-content (AID 1665)
Conditions: measured here: cell count, cytotoxicity flag, at 5 µM
Summary of the method: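 System: HeLa cells, endogenous beta-catenin; compound dosing: 5 µM primary single dose, 0.1% DMSO, 0.02–20 µM confirmation series; incubation: 24 h compound exposure at 37°C, 5% CO2; signal: beta-catenin immunofluorescence imaging with DAPI; evaluation: % activation, nuclear-to-cytoplasmic median beta-catenin signal ratio per cell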

SMILES	cell count
COc1cccc(C(=O)NCC2(N3CCCCC3)CCCCC2)c1	1060 cells
COc1ccc(Br)c(C(=O)NCC2(N3CCCCC3)CCCCC2)c1	1220 cells
CN(C)c1cccc(C(=O)NCC2(N(C)C)CCCCC2)c1	1120 cells
O=C(NCC1(N2CCCCC2)CCCCC1)c1cc([N+](=O)[O-])ccc1Cl	1040 cells
CCN(CC)CC(C)C(C)OC(=O)C(O)(c1ccccc1)c1ccccc1 (stereo not given)	1320 cells
CC(C)N1C(=O)CC2(CCN(CCOC(=O)C(O)(c3ccccc3)c3ccccc3)CC2)C1=O	1290 cells
Cc1ccccc1C(=O)NCC1(N2CCCCC2)CCCCC1	1140 cells
CN(C)C1CCCC1OC(=O)C(O)(c1ccccc1)c1ccccc1 (stereo not given)	1060 cells
C=CCN1CCN(CCOC(=O)C(O)(c2ccccc2)c2ccccc2)CC1	996 cells
CCN1CCCC(OC(=O)C2(O)c3ccccc3C=Cc3ccccc32)C1 (stereo not given)	619 cells
